Values quoted from earlier work, collected in US20060188956A1, “Relaxin3-gpcr135 complexes and their production and use” (priority 2003, published 2006).
For at least one compound, name, drawing or mass did not settle the structure.

Molecular target: T1, GPCR135 (Homo sapiens, UniProt Q9NSD7)
T1 sequence (Q9NSD7 1-469): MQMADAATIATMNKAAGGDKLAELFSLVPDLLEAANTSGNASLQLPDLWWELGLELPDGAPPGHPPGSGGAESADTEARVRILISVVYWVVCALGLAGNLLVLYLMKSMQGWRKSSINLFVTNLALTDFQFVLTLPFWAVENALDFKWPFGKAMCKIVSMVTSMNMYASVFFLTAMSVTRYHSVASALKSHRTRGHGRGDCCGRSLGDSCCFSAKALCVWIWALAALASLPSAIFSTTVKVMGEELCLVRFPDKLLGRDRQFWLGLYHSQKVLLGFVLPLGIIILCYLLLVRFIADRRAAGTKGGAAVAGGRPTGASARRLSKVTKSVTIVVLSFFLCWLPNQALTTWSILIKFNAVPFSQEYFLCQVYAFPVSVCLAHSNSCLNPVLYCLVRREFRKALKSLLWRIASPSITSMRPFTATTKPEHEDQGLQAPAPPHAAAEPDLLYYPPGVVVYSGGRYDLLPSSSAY
Settings: transient expression in Cos-1 cells; cited from earlier work

C[C@H](N)C(=O)NCC(=O)N[C@H]1CSSC[C@@H](C(=O)O)NC(=O)[C@H](CO)NC(=O)[C@H]([C@@H](C)O)NC(=O)[C@H](Cc2ccccc2)NC(=O)[C@H]([C@@H](C)O)NC(=O)[C@H](CCCCN)NC(=O)[C@H](Cc2c[nH]c3ccccc23)NC(=O)[C@H](Cc2ccccc2)NC(=O)[C@H](Cc2ccccc2)NC(=O)[C@H](CC(N)=O)NC(=O)[C@H](CCCCN)NC1=O [somatostatin]
binding sites on GPCR135: did not produce any binding sites
